# Source: PubChem BioAssay AID190 (DTP/NCI, 2004)
# The list does not hold the whole screen: it is rich in T/C values a quarter to a half above the control, in often repeated tests (any T/C) and in doses without a T/C. Other doses and runs of a compound stand elsewhere. T/C is the treated group as % of the vehicle group. Some doses have a count of surviving animals in place of a T/C: the source holds a T/C of zero for them, seemingly a mark for toxic or unscored doses. Some survivor counts are full or nearly so, which does not show that the dose was tolerated: the source hardly ever lists a survival T/C far under the control, and the zero likely stands for such cases as well. Counts of survivors are from the toxicity check (mostly the fifth day) where no day follows; animals may have died later. Schedules are NCI's codes, taken here to give the interval after Q, in days (D) or hours (H), and the number of doses after X. Some entries hold several experiments; the results are listed from low to high. For survival time, the PubChem record calls one and a half times the control and up active, and a quarter to a half above the control has no call in these data; cut-offs in other NCI protocols can differ. Additions like (4×) give the number of equal values in this list. Some T/C values carry the count of animals alive at the toxicity check (mostly the fifth day); without a count, all were alive then.
# System: AKR/Lw mice, AKR lymphoma ip, median survival T/C
# Test: NCI In Vivo Anticancer Drug Screen. Data for tumor model Lymphoma AKR (Transplanted) (intraperitoneal) in AKR/Lw mice
# Details: T/C endpoint: median survival time, higher T/C = longer survival
# Experimental: The antitumor activity of compounds was measured in mice bearing transplantable tumors. Survival or tumor size were measured and the results are expressed as the measurement made in the treated group (T) divided by the measurement made in the vehicle treated control group (C). The tumor model used in this assay is Lymphoma AKR (Transplanted) (intraperitoneal) in AKR/Lw mice
# [1] = dose: 12.5 mg/kg/injection, schedule: Q01DX001 (ip), vehicle: Klucel (hydroxypropylcellulose) (HPC)
# [2] = dose: 12.5 mg/kg/injection, schedule: Q07DX003 (ip), vehicle: Klucel (hydroxypropylcellulose) (HPC)
# [3] = dose: 12.5 mg/kg/injection, schedule: Q07DX003 (ip), vehicle: saline
# [4] = dose: 25.0 mg/kg/injection, schedule: Q01DX001 (ip), vehicle: Klucel (hydroxypropylcellulose) (HPC)
# [5] = dose: 25.0 mg/kg/injection, schedule: Q01DX001 (ip), vehicle: saline
# [6] = dose: 25.0 mg/kg/injection, schedule: Q07DX003 (ip), vehicle: Klucel (hydroxypropylcellulose) (HPC)
# [7] = dose: 50.0 mg/kg/injection, schedule: Q01DX001 (ip), vehicle: Klucel (hydroxypropylcellulose) (HPC)
# [8] = dose: 50.0 mg/kg/injection, schedule: Q01DX001 (ip), vehicle: saline
# [9] = dose: 50.0 mg/kg/injection, schedule: Q07DX003 (ip), vehicle: Klucel (hydroxypropylcellulose) (HPC)
# [10] = dose: 75.0 mg/kg/injection, schedule: Q01DX001 (ip), vehicle: Klucel (hydroxypropylcellulose) (HPC)
compound,measurement,setting,value
CC1CCC(NC(=O)N(CCCl)N=O)CC1 (stereo not given),T/C,"dose: 3.1 mg/kg/injection, schedule: Q07DX003 (ip), vehicle: Klucel (hydroxypropylcellulose) (HPC)","94, 100, 107, 112, 115 % of control (2×)"
same,T/C,"dose: 5.0 mg/kg/injection, schedule: Q14DX003 (ip), vehicle: saline with Tween-80, evaluated on day 5",104 and 117 % of control
same,T/C,"dose: 5.0 mg/kg/injection, schedule: Q14DX003 (ip), vehicle: saline with Tween-80, evaluated on day 9",91 % of control
same,T/C,"dose: 5.0 mg/kg/injection, schedule: Q14DX003 (ip), vehicle: saline with Tween-80, evaluated on day 60",104 and 117 % of control
same,T/C,"dose: 6.0 mg/kg/injection, schedule: Q01DX001 (ip), vehicle: saline with Tween-80, evaluated on day 5",112 and 130 % of control
same,T/C,"dose: 6.0 mg/kg/injection, schedule: Q01DX001 (ip), vehicle: saline with Tween-80, evaluated on day 60",112 and 130 % of control
same,T/C,"dose: 6.2 mg/kg/injection, schedule: Q07DX003 (ip), vehicle: Klucel (hydroxypropylcellulose) (HPC)","97, 100 (2×), 105 (2×), 121 % of control [9 of 10 alive]"
same,T/C,"dose: 6.25 mg/kg/injection, schedule: Q07DX003 (ip), vehicle: saline",134 % of control
same,T/C,"dose: 6.7 mg/kg/injection, schedule: Q04DX003 (ip), vehicle: saline with Tween-80, evaluated on day 5",146 % of control
same,T/C,"dose: 6.7 mg/kg/injection, schedule: Q04DX003 (ip), vehicle: saline with Tween-80, evaluated on day 60",146 % of control
same,T/C,"dose: 7.0 mg/kg/injection, schedule: Q01DX001 (ip), vehicle: saline with Tween-80, evaluated on day 5",138 % of control
same,T/C,"dose: 7.0 mg/kg/injection, schedule: Q01DX001 (ip), vehicle: saline with Tween-80, evaluated on day 60",138 % of control
same,survivor count,"dose: 10.0 mg/kg/injection, schedule: Q04DX003 (ip), vehicle: saline with Tween-80",9 of 10
same,T/C,"dose: 10.0 mg/kg/injection, schedule: Q14DX003 (ip), vehicle: saline with Tween-80, evaluated on day 5",115 and 123 % of control
same,T/C,"dose: 10.0 mg/kg/injection, schedule: Q14DX003 (ip), vehicle: saline with Tween-80, evaluated on day 9",108 and 114 % of control
same,T/C,"dose: 10.0 mg/kg/injection, schedule: Q14DX003 (ip), vehicle: saline with Tween-80, evaluated on day 60",115 and 123 % of control
same,T/C,"dose: 12.0 mg/kg/injection, schedule: Q01DX001 (ip), vehicle: saline with Tween-80, evaluated on day 5",111 and 128 % of control
same,T/C,"dose: 12.0 mg/kg/injection, schedule: Q01DX001 (ip), vehicle: saline with Tween-80, evaluated on day 60",111 and 128 % of control
same,T/C,"dose: 12.0 mg/kg/injection, schedule: Q01DX001 (ip), vehicle: saline",131 % of control
same,T/C,[1],"100, 108, 120, 125, 140 % of control [9 of 10 alive]"
same,survivor count,[1],8 of 10
same,T/C,[2],105 (3×) and 110 % of control (2×)
same,survivor count,[2],10 of 10
same,T/C,[3],131 % of control (2×)
same,survivor count,[3],10 of 10
same,T/C,"dose: 20.0 mg/kg/injection, schedule: Q10DX002 (ip), vehicle: saline with Tween-80",128 % of control
same,T/C,"dose: 20.0 mg/kg/injection, schedule: Q14DX003 (ip), vehicle: saline with Tween-80, evaluated on day 5",123 % of control
same,T/C,"dose: 20.0 mg/kg/injection, schedule: Q14DX003 (ip), vehicle: saline with Tween-80, evaluated on day 9",110 and 119 % of control
same,T/C,"dose: 20.0 mg/kg/injection, schedule: Q14DX003 (ip), vehicle: saline with Tween-80, evaluated on day 60",123 % of control
same,T/C,"dose: 24.0 mg/kg/injection, schedule: Q01DX001 (ip), vehicle: saline with Tween-80, evaluated on day 5",109 and 127 % of control
same,T/C,"dose: 24.0 mg/kg/injection, schedule: Q01DX001 (ip), vehicle: saline with Tween-80, evaluated on day 60",109 and 127 % of control [9 of 10 alive]
same,T/C,[4],"93, 108, 133, 145 % of control"
same,survivor count,[4],4 of 10 and 9 of 10
same,T/C,[5],128 and 134 % of control [9 of 10 alive]
same,survivor count,[5],9 of 10
same,T/C,[6],107 and 115 % of control
same,survivor count,[6],10 of 10
same,T/C,"dose: 25.0 mg/kg/injection, schedule: Q07DX003 (ip), vehicle: saline",125 % of control
same,T/C,"dose: 30.0 mg/kg/injection, schedule: Q14DX003 (ip), vehicle: saline with Tween-80",132 % of control
same,survivor count,"dose: 40.0 mg/kg/injection, schedule: Q04DX004 (ip), vehicle: Klucel (hydroxypropylcellulose) (HPC)",9 of 10
same,T/C,"dose: 40.0 mg/kg/injection, schedule: Q14DX003 (ip), vehicle: saline with Tween-80",148 % of control
same,T/C,[7],"104 [9 of 10 alive], 108, 129 % of control"
same,survivor count,[7],"4 of 10, 5 of 10, 9 of 10"
same,T/C,[8],131 and 140 % of control
same,survivor count,[8],10 of 10
same,T/C,[9],105 % of control [9 of 10 alive]
same,survivor count,[9],6 of 10 and 10 of 10
same,T/C,[10],91 and 108 % of control
same,survivor count,[10],"0 of 10, 3 of 10, 6 of 10, 9 of 10"
same,survivor count,"dose: 100.0 mg/kg/injection, schedule: Q01DX001 (ip), vehicle: saline",4 of 10 and 7 of 10
